These are yes or no findings as the source states them, for the method shown. In cells and extracts the contact can be indirect. These calls come from enrichment with a bait or labelling near it, and not all partners need be listed.
B1: TRIM29 (protein, UniProt Q14134 1-588)
chain: MEAADASRSNGSSPEARDARSPSGPSGSLENGTKADGKDAKTTNGHGGEAAEGKSLGSALKPGEGRSALFAGNEWRRPIIQFVESGDDKNSNYFSMDSMEGKRSPYAGLQLGAAKKPPVTFAEKGELRKSIFSESRKPTVSIMEPGETRRNSYPRADTGLFSRSKSGSEEVLCDSCIGNKQKAVKSCLVCQASFCELHLKPHLEGAAFRDHQLLEPIRDFEARKCPVHGKTMELFCQTDQTCICYLCMFQEHKNHSTVTVEEAKAEKETELSLQKEQLQLKIIEIEDEAEKWQKEKDRIKSFTTNEKAILEQNFRDLVRDLEKQKEEVRAALEQREQDAVDQVKVIMDALDERAKVLHEDKQTREQLHSISDSVLFLQEFGALMSNYSLPPPLPTYHVLLEGEGLGQSLGNFKDDLLNVCMRHVEKMCKADLSRNFIERNHMENGGDHRYVNNYTNSFGGEWSAPDTMKRYSMYLTPKGGVRTSYQPSSPGRFTKETTQKNFNNLYGTKGNYTSRVWEYSSSIQNSDNDLPVVQGSSSFSLKGYPSLMRSQSPKAQPQTWKSGKQTMLSHYRPFYVNKGNGIGSNEAP
B2: RSF1 (protein, UniProt Q96T23 1-1441)
chain: MATAAAAAAVMAPPGCPGSCPNFAVVCSFLERYGPLLDLPELPFPELERVLQAPPPDVGNGEVPKELVELHLKLMRKIGKSVTADRWEKYLIKICQEFNSTWAWEMEKKGYLEMSVECKLALLKYLCECQFDDNLKFKNIINEEDADTMRLQPIGRDKDGLMYWYQLDQDHNVRMYIEEQDDQDGSSWKCIVRNRNELAETLALLKAQIDPVLLKNSSQQDNSSRESPSLEDEETKKEEETPKQEEQKESEKMKSEEQPMDLENRSTANVLEETTVKKEKEDEKELVKLPVIVKLEKPLPENEEKKIIKEESDSFKENVKPIKVEVKECRADPKDTKSSMEKPVAQEPERIEFGGNIKSSHEITEKSTEETEKLKNDQQAKIPLKKREIKLSDDFDSPVKGPLCKSVTPTKEFLKDEIKQEEETCKRISTITALGHEGKQLVNGEVSDERVAPNFKTEPIETKFYETKEESYSPSKDRNIITEGNGTESLNSVITSMKTGELEKETAPLRKDADSSISVLEIHSQKAQIEEPDPPEMETSLDSSEMAKDLSSKTALSSTESCTMKGEEKSPKTKKDKRPPILECLEKLEKSKKTFLDKDAQRLSPIPEEVPKSTLESEKPGSPEAAETSPPSNIIDHCEKLASEKEVVECQSTSTVGGQSVKKVDLETLKEDSEFTKVEMDNLDNAQTSGIEEPSETKGSMQKSKFKYKLVPEEETTASENTEITSERQKEGIKLTIRISSRKKKPDSPPKVLEPENKQEKTEKEEEKTNVGRTLRRSPRISRPTAKVAEIRDQKADKKRGEGEDEVEEESTALQKTDKKEILKKSEKDTNSKVSKVKPKGKVRWTGSRTRGRWKYSSNDESEGSGSEKSSAASEEEEEKESEEAILADDDEPCKKCGLPNHPELILLCDSCDSGYHTACLRPPLMIIPDGEWFCPPCQHKLLCEKLEEQLQDLDVALKKKERAERRKERLVYVGISIENIIPPQEPDFSEDQEEKKKDSKKSKANLLERRSTRTRKCISYRFDEFDEAIDEAIEDDIKEADGGGVGRGKDISTITGHRGKDISTILDEERKENKRPQRAAAARRKKRRRLNDLDSDSNLDEEESEDEFKISDGSQDEFVVSDENPDESEEDPPSNDDSDTDFCSRRLRRHPSRPMRQSRRLRRKTPKKKYSDDDEEEESEENSRDSESDFSDDFSDDFVETRRRRSRRNQKRQINYKEDSESDGSQKSLRRGKEIRRVHKRRLSSSESEESYLSKNSEDDELAKESKRSVRKRGRSTDEYSEADEEEEEEEGKPSRKRLHRIETDEEESCDNAHGDANQPARDSQPRVLPSEQESTKKPYRIESDEEEDFENVGKVGSPLDYSLVDLPSTNGQSPGKAIENLIGKPTEKSQTPKDNSTASASLASNGTSGGQEAGAPEEEEDELLRVTDLVDYVCNSEQL

Sequences of proteins named here, by UniProt entry; tags and fusion partners are left off.
UniProt Q9Y6M1: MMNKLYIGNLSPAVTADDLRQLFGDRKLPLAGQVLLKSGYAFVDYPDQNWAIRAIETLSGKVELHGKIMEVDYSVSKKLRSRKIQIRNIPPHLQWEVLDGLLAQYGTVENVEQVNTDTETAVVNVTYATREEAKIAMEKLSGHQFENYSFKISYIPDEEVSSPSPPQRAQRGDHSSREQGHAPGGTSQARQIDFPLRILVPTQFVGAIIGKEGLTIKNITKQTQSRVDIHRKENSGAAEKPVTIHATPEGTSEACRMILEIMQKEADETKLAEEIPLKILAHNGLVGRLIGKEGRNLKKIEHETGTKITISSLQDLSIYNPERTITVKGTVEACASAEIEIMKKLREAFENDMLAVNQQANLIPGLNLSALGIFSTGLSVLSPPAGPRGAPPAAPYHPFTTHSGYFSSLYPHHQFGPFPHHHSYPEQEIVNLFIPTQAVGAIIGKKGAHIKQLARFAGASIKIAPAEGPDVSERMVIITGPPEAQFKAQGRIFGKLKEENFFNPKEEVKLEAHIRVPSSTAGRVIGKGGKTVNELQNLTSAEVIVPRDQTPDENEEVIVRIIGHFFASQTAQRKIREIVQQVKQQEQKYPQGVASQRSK
UniProt P29590: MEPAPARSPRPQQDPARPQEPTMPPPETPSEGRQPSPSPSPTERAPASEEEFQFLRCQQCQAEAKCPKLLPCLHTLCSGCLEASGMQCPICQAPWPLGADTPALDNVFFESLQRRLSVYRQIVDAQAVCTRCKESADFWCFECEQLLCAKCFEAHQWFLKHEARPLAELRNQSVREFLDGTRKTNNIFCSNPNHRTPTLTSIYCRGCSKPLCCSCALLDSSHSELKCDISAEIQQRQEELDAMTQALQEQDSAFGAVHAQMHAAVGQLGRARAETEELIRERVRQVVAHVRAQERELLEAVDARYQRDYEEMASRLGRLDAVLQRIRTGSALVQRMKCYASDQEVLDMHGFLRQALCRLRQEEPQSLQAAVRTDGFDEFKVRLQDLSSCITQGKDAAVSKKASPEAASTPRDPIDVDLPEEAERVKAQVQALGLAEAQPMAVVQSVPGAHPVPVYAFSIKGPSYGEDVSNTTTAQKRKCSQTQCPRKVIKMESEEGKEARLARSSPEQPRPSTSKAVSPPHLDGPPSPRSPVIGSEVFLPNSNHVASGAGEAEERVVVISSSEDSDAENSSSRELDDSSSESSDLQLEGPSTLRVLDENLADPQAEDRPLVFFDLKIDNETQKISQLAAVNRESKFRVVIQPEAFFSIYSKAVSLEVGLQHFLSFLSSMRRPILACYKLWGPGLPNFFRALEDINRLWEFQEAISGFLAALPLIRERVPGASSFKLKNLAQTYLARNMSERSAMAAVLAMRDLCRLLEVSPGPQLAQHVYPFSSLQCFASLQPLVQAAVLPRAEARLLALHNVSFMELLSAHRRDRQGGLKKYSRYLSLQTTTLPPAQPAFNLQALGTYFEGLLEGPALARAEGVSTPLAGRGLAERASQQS
UniProt Q14258: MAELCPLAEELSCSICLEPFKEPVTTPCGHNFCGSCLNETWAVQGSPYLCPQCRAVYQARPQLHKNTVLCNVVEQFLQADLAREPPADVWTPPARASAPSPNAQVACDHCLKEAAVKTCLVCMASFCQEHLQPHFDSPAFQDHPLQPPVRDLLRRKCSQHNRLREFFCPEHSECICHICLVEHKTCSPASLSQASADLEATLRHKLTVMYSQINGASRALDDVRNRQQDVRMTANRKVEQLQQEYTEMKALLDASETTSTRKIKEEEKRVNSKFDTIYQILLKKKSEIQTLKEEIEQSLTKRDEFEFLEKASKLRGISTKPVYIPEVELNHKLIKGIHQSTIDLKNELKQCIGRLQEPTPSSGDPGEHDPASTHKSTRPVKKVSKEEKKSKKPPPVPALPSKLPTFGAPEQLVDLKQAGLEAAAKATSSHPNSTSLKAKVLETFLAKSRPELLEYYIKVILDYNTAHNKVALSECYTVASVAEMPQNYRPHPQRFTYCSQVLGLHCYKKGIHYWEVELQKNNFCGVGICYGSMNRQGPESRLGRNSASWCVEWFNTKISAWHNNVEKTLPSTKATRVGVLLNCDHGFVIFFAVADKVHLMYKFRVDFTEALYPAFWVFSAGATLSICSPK

target: HA-IGF2BP2 (insulin-like growth factor 2 mRNA-binding protein 2) (UniProt Q9Y6M1); test: affinity purification with mass spectrometry; IP-MS in 293T cells transfected with HA-IGF2BP2 or HA-NC; Pierce Co-immunoprecipitation Kit, Pierce IP Lysis Buffer, protein A/G beads, 4 °C overnight

binding, binds:
PML (from UniProt P29590 1-882), TRIM25 (from UniProt Q14258 1-630), B1, B2

— publication PMC12486403
